Results are given in words; binding and its absence hold for the method and conditions named.

B1: PDL1-1 (VHH)
VHH: QVQLQESGGGLVQPGGSLTLSCAASGFTVSNSAVSWARQAPGKGLEWVSLIDSNRNTVYAQSVRGRFTISRDNVKNTVYLQMNSLKPEDTAVYYCAKGIWGSTLTGQGTQVTVSS
B2: PDL1-3 (VHH)
VHH: QVQLQESGGGLVQPGGSLRLSCAGSGSIFRITPVAWYRQAPEKQRELVAVITDNGSTDYGDFVKGRFTISRDNAKNTVYLQMNSLKPEDTAVYYCNSRARPVRWTWGQGTQVTVSS
B3: PDL1-14 (VHH)
VHH: QVQLQESGGGLVQPGGSLRLSCAASGIISDINMVAWYRQAPGKQRELVAKIFRGGSTYYTDFVKGRFTISRENAKNTVYLQMNSLKPDDTAVYYCNARIQIRADRDYSDYWGQGTQVTVSS

One experiment addresses HER2. Put plainly: ELISA, 200 ng/well coated, anti-His HRP. In general terms: An ELISA detects its analyte on a solid surface through an enzyme-linked reagent.
On to B1, for which the binding result is given as “no binding (tested: 0.2 µg)”.
For B2, the binding entry is recorded as “no binding (tested: 0.2 µg)”.
With B3, the binding entry is on record as “no binding (tested: 0.2 µg)”.

The target of a further experiment is HpaA. The experiment in a line: ELISA, 200 ng/well coated, anti-His HRP.
Consider B1, for which the binding result is reported as “no binding (tested: 0.2 µg)”.
Take B2: the binding result is on record as “no binding (tested: 0.2 µg)”.
Same read-out and setting: then B3, with “no binding (tested: 0.2 µg)”.

Another experiment deals with IL-15. Put plainly: ELISA, 200 ng/well coated, anti-His HRP.
Turning to B1, the binding result was “no binding (tested: 0.2 µg)”.
On to B2, for which the binding result is “no binding (tested: 0.2 µg)”.
The same measure, in the same setting: for B3 the value was “no binding (tested: 0.2 µg)”.

For a further experiment, the target named is PD1. Put plainly: ELISA, 200 ng/well coated, anti-His HRP.
Consider B1, for which the binding result was “no binding (tested: 0.2 µg)”.
Still for that read-out and setting: for B2 the value was “no binding (tested: 0.2 µg)”.
On the same count and under the same terms, for B3 the value was “no binding (tested: 0.2 µg)”.

The target in a further experiment is BCMA. The experiment in a line: ELISA, 200 ng/well coated, anti-His HRP.
For the molecule B1, the binding result is on record as “no binding (tested: 0.2 µg)”.
Same read-out and setting: then B2, with “no binding (tested: 0.2 µg)”; and B3, with “no binding (tested: 0.2 µg)”.

Another experiment deals with IL-12. Put plainly: ELISA, 200 ng/well coated, anti-His HRP.
As for B1, the binding result is recorded as “no binding (tested: 0.2 µg)”.
For the molecule B2, the binding result is “no binding (tested: 0.2 µg)”.
Same read-out and setting: then B3, with “no binding (tested: 0.2 µg)”.

In another experiment the target is IL-18. The experiment in a line: ELISA, 200 ng/well coated, anti-His HRP.
On to B1, for which the binding entry was “no binding (tested: 0.2 µg)”.
Still for that read-out and setting: then B2, with “no binding (tested: 0.2 µg)”; and B3, with “no binding (tested: 0.2 µg)”.

The target in a further experiment is HtrA. The experiment in a line: ELISA, 200 ng/well coated, anti-His HRP.
B1: the binding result is reported as “no binding (tested: 0.2 µg)”.
Still for that read-out and setting: for B2 the value was “no binding (tested: 0.2 µg)”.
The same measure, in the same setting: for B3 the value was “no binding (tested: 0.2 µg)”.

The next experiment has as its target UreB. Put plainly: ELISA, 200 ng/well coated, anti-His HRP.
With B1, the binding entry is listed as “no binding (tested: 0.2 µg)”.
On the same count and under the same terms, for B2 the value was “no binding (tested: 0.2 µg)”; for B3, “no binding (tested: 0.2 µg)”.

Values taken from EP4703382A1.
